The values that follow come from PMC10287693.

Amino acid sequences for entries named in this document (tags omitted).
UniProt P61764: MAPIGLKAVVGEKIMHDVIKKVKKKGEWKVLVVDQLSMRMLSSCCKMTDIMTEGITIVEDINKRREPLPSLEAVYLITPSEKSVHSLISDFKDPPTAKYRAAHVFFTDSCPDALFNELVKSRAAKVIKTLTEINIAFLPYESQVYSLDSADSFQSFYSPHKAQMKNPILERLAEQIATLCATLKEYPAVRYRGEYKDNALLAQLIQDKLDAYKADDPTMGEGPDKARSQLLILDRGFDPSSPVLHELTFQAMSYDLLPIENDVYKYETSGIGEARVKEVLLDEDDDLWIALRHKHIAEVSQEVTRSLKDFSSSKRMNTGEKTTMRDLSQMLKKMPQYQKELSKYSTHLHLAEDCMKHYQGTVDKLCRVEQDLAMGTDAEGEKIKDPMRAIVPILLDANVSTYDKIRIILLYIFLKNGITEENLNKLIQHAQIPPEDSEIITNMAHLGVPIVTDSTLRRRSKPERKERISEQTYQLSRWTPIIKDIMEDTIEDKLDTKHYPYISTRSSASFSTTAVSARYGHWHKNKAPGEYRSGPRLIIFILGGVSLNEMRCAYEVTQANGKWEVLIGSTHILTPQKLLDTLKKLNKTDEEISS

The target in experiment [1] is T1, Tspan-8·GFP (transiently transfected) (UniProt P19075).
T1 sequence: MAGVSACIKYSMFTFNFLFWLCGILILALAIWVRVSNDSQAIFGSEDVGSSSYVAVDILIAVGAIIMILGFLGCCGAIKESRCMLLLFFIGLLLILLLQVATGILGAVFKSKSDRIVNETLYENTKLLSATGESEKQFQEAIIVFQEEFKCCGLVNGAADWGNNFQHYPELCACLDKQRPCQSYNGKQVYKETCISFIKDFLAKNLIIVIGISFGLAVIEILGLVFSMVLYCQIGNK
Put plainly: co-IP; GFP immunoprecipitation from cells transiently co-transfected with Tspan-8·GFP and Stx2·FLAG; western blot; controls no transfection and Tspan-8·RFP transfection. On the technique in general: Immunoblotting shows a protein as a band on a membrane.

Experiment [2] has as its target T2, Vesicle-associated membrane protein 8 (endogenous) (human (endogenous in HT29-N2)) (UniProt Q9BV40).
T2 sequence: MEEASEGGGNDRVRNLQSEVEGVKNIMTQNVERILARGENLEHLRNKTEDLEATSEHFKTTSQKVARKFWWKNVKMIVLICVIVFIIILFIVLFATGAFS
Put plainly: co-IP; VAMP-8 immunoprecipitation from lysates of HT29-N2 cells genetically modified to express Tspan-8·GFP; western blot; uncoated beads as control.

Experiment [3] deals with T3, Tspan-8·GFP (tetraspanin-8 tagged with sfGFP at the endogenous TSPAN8 locus) (human (endogenous in HT29-N2)) (UniProt P19075).
T3 sequence: T1 sequence
Put plainly: co-IP; GFP-Trap agarose IP of Tspan-8·GFP (WT or d234-237) from lysates of differentiated HT29-N2 cells; lysis buffer Tris 50 mM, NaCl 150 mM, pH 7.3, Triton X-100 1%; 60 min at 4 °C; western blot; controls RFP immunoprecipitation or WT HT29-N2 cells.

Results are given in words; binding and its absence hold for the method and conditions named. In cells and extracts the contact can be indirect. Some entries that bind do so weakly or less than the wild type. Tags and fused reporters may be left off the sequences shown.

Regarding “Munc18-1 (endogenous) (from UniProt P61764 1-594)”, the binding result in experiment [1] is on record as “no binding”.

B1: Munc18-2 (endogenous) (protein, UniProt Q15833 1-593)
chain: MAPSGLKAVVGEKILSGVIRSVKKDGEWKVLIMDHPSMRILSSCCKMSDILAEGITIVEDINKRREPIPSLEAIYLLSPTEKSVQALIKDFQGTPTFTYKAAHIFFTDTCPEPLFSELGRSRLAKVVKTLKEIHLAFLPYEAQVFSLDAPHSTYNLYCPFRAEERTRQLEVLAQQIATLCATLQEYPAIRYRKGPEDTAQLAHAVLAKLNAFKADTPSLGEGPEKTRSQLLIMDRAADPVSPLLHELTFQAMAYDLLDIEQDTYRYETTGLSEAREKAVLLDEDDDLWVELRHMHIADVSKKVTELLRTFCESKRLTTDKANIKDLSQILKKMPQYQKELNKYSTHLHLADDCMKHFKGSVEKLCSVEQDLAMGSDAEGEKIKDSMKLIVPVLLDAAVPAYDKIRVLLLYILLRNGVSEENLAKLIQHANVQAHSSLIRNLEQLGGTVTNPGGSGTSSRLEPRERMEPTYQLSRWTPVIKDVMEDAVEDRLDRNLWPFVSDPAPTASSQAAVSARFGHWHKNKAGIEARAGPRLIVYVMGGVAMSEMRAAYEVTRATEGKWEVLIGSSHILTPTRFLDDLKALDKKLEDIALP
For the molecule B1, the binding entry in experiment [1] was “no binding”.

B2: Tspan-8·GFP (tetraspanin-8 tagged with sfGFP at the endogenous TSPAN8 locus) (protein, UniProt P19075 1-237)
chain: T1 sequence
Regarding B2, in experiment [2], the binding result is listed as “no binding”.

B3: syntaxin-3 (endogenous) (protein, UniProt Q13277 1-289)
chain: MKDRLEQLKAKQLTQDDDTDAVEIAIDNTAFMDEFFSEIEETRLNIDKISEHVEEAKKLYSIILSAPIPEPKTKDDLEQLTTEIKKRANNVRNKLKSMEKHIEEDEVRSSADLRIRKSQHSVLSRKFVEVMTKYNEAQVDFRERSKGRIQRQLEITGKKTTDEELEEMLESGNPAIFTSGIIDSQISKQALSEIEGRHKDIVRLESSIKELHDMFMDIAMLVENQGEMLDNIELNVMHTVDHVEKARDETKKAVKYQSQARKKLIIIIVLVVVLLGILALIIGLSVGLN
On to B3, for which, in experiment [3], the binding entry is on record as “binds”.
